# Measured values as given in the supplement of paper PMC12067093, “Discovery and optimisation of a covalent ligand for TRIM25 and its application to targeted protein ubiquitination” (Chemical Science, 2025).
# The other results are listed elsewhere or left out.
# Compound: CC1Cc2ccccc2N1C(=O)C1CCCN(C1)C(=O)CCl (mixture of isomers) [TRIM25 ligand 11 (diastereomer mixture)]
# Assay: probe-labelled cysteine peptide fold change vs DMSO (competition) (log2 fold change); higher = less target engagement (more negative = stronger competition)
# Conditions: THP-1, incubation time: 4 h
# 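Also: competitive chemoproteomic profiling in live THP-1 cells with an iodoacetamide desthiobiotin (IA-DTB) probe, comparing probe-labelled peptide intensities in compound-treated cells against DMSO-treated controls.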
Target,probe-labelled cysteine peptide fold change (10 µM),probe-labelled cysteine peptide fold change (50 µM)
MOCS3_O95396_193_YLVNDACVLAGRPLVSASALR (UniProt O95396),-0.0913,-0.0185
MINDY1_Q8N5J2_94_ACSMPQELPQSPR (UniProt Q8N5J2),-0.162,-0.508
MRPL17_Q9NRX2_129_GNCLPPLPLPR (UniProt Q9NRX2),-0.259,-0.267
MROH1_Q8NDA8_1035_DGLVHPDPAILFHTCHSVGQIIAK (UniProt Q8NDA8),0.125,0.082
MORC3_Q14149_787_QCSALQHVK (UniProt Q14149),-0.05,-0.17
MORC3_Q14149_717_QCHMFTDQIK (UniProt Q14149),-0.0943,0.000884
MRPL35_Q9NZE8_150_EFVFCNK (UniProt Q9NZE8),-0.085,-0.192
MOGS_Q13724_602_CWVALGAR (UniProt Q13724),-0.0135,-0.0553
MOB4_Q9Y3A3_97_LQSECHPDTCTQMTATEQWIFLCAAHK (UniProt Q9Y3A3),0.0422,-0.119
MPST_P25325_7_ASPQLCR (UniProt P25325),-0.185,0.0739
MRPL38_Q96DV4_321_HQETMTPAGLSFFQCR (UniProt Q96DV4),-0.299,-0.138
MRPL37_Q9BZE1_268_NHVLETFYPISPIIDLHECNIYDVK (UniProt Q9BZE1),0.13,0.012
MPP5_Q8N3R9_366_AHFDYDPSDDPYVPCR (UniProt Q8N3R9),-0.321,-0.153
MKI67_P46013_1981_ITEVSCK (UniProt P46013),-0.0568,-0.02
MLLT1_Q03111_42_GPEQCDIQHFVEK (UniProt Q03111),0.0642,0.127
MKI67_P46013_1285_KADVEGELLACR (UniProt P46013),-0.0292,-0.27
MMADHC_Q9H3L0_261_HLGFSVDDLGCCK (UniProt Q9H3L0),0.000804,-0.161
MICAL1_Q8TDZ2_87+95_CLVVGAGPCGLR (UniProt Q8TDZ2),-0.147,0.1
MICAL1_Q8TDZ2_711_LCVNGHFFHR (UniProt Q8TDZ2),-0.0577,0.00322
MIS12_Q9H081_133_YKTELCTK (UniProt Q9H081),-0.0461,0.0357

Target,probe-labelled cysteine peptide fold change (10 µM),probe-labelled cysteine peptide fold change (50 µM)
MPRIP_Q6WCQ1_831_CLENAHLAQALEAER (UniProt Q6WCQ1),-0.0448,-0.0915
MRPL3_P09001_127_HVVTLLQVQDCHVLK (UniProt P09001),0.0523,0.123
MORC2_Q9Y6X9_127_KEDTMTCLFLSR (UniProt Q9Y6X9),0.17,0.232
MMAA_Q8IVH4_100_ACLAEAITLVESTHSR (UniProt Q8IVH4),0.0656,0.0204
MIOS_Q9NXC5_854_DHAECPVSACTCK (UniProt Q9NXC5),0.203,0.0703
MOB4_Q9Y3A3_134_HTLDGAACLLNSNK (UniProt Q9Y3A3),-0.19,-0.629
MRPL37_Q9BZE1_177_ETYCPVIVDNLIQLCK (UniProt Q9BZE1),0.141,0.029
MNAT1_P51948_46+49_GAGNCPECGTPLR (UniProt P51948),0.0971,-0.057
MPC2_O95563_54_WGLVCAGLADMARPAEK (UniProt O95563),-0.137,-0.307
MRC2_Q9UBG0_521_AGQLSQGAAEEDHGCR (UniProt Q9UBG0),-0.183,-0.219
MGRN1_O60291_528_AASIENVLQDSSPEHCGR (UniProt O60291),-0.0357,-0.421
MKI67_P46013_35_GIECDIR (UniProt P46013),0.109,0.259
MGA_Q8IWI9_1146_KLEYTICETEPEQPVR (UniProt Q8IWI9),-0.124,-0.231
MPRIP_Q6WCQ1_724_EGYVLQATCER (UniProt Q6WCQ1),0.0872,0.027
MPP6_Q9NZW5_222_CHFDYNPYNDNLIPCK (UniProt Q9NZW5),-0.00612,0.127
MORF4L1_Q9UBU8_19_VLCFHGPLLYEAK (UniProt Q9UBU8),-0.00468,0.337
MRPL37_Q9BZE1_177_RETYCPVIVDNLIQLCK (UniProt Q9BZE1),0.0168,-0.11
MITD1_Q8WV92_233_FSLGYCDFDLRPCHETTVDIFHKK (UniProt Q8WV92),-0.179,-0.197
MGMT_P16455_145_GNPVPILIPCHR (UniProt P16455),-0.499,-1.05
MMADHC_Q9H3L0_261+262_HLGFSVDDLGCCK (UniProt Q9H3L0),0.0906,-0.242

# Full records as entered above.
# MROH1_Q8NDA8_1035_DGLVHPDPAILFHTCHSVGQIIAK (UniProt Q8NDA8) reads probe-labelled cysteine peptide fold change (10 µM): 0.125; probe-labelled cysteine peptide fold change (50 µM): 0.082
# MRPL37_Q9BZE1_177_ETYCPVIVDNLIQLCK (UniProt Q9BZE1) reads probe-labelled cysteine peptide fold change (10 µM): 0.141; probe-labelled cysteine peptide fold change (50 µM): 0.029
